Earlier results in patent US20040115666A1, “Method for identifying compounds modulating reverse cholesterol transport” (priority 2001, published 2004).
At least one structure is not confirmed: it was looked up by name or label, or the drawing left a doubt.

The chains behind the UniProt entries cited, without tags or fusion partners. Where a name states a change or a piece, a line headed by the entry shows the natural chain unless it says otherwise.
UniProt Q96RI1: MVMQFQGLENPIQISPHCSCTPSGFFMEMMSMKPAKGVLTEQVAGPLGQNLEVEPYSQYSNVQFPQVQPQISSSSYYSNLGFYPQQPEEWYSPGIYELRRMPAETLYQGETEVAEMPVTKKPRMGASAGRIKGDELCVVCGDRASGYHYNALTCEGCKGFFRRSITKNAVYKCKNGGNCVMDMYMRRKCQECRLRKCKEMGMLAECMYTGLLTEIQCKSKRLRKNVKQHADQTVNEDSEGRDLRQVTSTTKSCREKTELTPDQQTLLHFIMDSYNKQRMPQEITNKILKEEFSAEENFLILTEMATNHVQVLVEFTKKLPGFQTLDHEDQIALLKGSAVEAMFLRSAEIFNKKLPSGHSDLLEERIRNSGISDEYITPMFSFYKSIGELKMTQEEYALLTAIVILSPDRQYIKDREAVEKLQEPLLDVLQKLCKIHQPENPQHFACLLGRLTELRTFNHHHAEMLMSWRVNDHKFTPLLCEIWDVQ

Biological target: T1, FXR (Homo sapiens, UniProt Q96RI1)
T1 sequence (Q96RI1 1-472 isoform Q96RI1-2): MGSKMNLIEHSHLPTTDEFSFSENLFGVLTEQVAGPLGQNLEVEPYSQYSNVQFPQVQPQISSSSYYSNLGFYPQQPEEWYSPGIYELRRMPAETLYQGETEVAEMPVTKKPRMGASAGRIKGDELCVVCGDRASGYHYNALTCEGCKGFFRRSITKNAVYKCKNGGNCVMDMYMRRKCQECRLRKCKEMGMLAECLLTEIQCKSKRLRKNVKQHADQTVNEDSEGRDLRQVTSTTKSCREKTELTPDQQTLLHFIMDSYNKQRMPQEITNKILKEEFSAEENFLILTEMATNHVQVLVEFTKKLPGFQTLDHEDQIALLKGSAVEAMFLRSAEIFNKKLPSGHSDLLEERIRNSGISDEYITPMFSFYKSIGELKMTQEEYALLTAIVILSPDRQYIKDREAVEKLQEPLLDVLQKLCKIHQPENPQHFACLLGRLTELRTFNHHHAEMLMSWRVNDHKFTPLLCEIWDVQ
Set-up: expressed in transfected cells; host or cells: HepG2
Details: background statement; cited from earlier work

| Structure (SMILES) | FXR activation (bile acids as ligands of FXR) |
| --- | --- |
| C[C@H](CCC(=O)O)[C@H]1CC[C@H]2[C@@H]3CC[C@@H]4C[C@H](O)CC[C@]4(C)[C@H]3CC[C@]12C [LCA, lithocholic acid] | to a lesser extent |
| C[C@H](CCC(=O)O)[C@H]1CC[C@H]2[C@@H]3CC[C@@H]4C[C@H](O)CC[C@]4(C)[C@H]3C[C@H](O)[C@]12C [DCA, deoxycholic acid] | activate |
